Article doi:10.1101/2023.05.15.540505
Results are given in words; binding and its absence hold for the method and conditions named. In cells and extracts the contact can be indirect. Some entries that bind do so weakly or less than the wild type.

The chains behind the UniProt entries cited, without tags or fusion partners. Residues count along the entry.
UniProt Q9UKT9: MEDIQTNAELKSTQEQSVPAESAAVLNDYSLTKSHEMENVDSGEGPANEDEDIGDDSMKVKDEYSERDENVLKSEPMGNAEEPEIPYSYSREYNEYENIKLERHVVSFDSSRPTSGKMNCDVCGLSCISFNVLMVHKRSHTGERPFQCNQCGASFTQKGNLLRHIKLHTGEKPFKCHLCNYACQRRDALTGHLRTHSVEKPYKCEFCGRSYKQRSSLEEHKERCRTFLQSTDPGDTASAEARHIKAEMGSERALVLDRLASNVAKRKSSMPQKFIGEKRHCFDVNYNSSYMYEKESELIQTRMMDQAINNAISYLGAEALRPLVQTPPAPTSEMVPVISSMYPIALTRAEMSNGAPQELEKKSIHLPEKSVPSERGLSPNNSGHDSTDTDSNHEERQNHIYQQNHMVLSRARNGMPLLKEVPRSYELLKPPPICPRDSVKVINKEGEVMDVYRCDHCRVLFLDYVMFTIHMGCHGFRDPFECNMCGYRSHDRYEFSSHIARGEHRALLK
UniProt Q01196: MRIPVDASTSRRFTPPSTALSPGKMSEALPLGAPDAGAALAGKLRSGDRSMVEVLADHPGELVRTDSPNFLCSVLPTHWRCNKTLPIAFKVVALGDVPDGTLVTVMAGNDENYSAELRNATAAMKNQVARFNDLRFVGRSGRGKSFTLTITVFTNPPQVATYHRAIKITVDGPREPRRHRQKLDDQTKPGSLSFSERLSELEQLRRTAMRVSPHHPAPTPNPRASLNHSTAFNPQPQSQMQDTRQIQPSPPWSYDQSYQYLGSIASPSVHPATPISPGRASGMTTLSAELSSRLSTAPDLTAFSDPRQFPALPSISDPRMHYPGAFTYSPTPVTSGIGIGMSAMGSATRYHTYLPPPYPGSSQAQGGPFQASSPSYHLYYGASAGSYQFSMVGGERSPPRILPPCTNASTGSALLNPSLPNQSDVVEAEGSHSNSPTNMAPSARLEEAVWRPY
UniProt Q9BZS1, residues 1-417: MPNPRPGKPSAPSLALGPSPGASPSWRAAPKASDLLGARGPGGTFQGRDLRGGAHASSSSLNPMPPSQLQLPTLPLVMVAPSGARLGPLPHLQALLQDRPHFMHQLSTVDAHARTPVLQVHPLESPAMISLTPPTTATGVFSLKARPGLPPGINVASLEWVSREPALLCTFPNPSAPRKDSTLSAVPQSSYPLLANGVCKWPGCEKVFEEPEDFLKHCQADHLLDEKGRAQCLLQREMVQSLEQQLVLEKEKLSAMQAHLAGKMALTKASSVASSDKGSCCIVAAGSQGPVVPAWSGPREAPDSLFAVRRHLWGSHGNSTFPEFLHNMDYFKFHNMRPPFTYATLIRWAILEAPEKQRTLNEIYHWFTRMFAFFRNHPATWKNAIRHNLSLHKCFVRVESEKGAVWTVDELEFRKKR

Columns and labels:
Assay in all cases: co-IP
[1] = target: IKZF3 (human (endogenous in iTreg cells)) (UniProt Q9UKT9)
[2] = target: Runt-related transcription factor 1 (RUNX1) (human (endogenous in iTreg cells)) (UniProt Q01196)
[3] = target: Forkhead box P3 (FOXP3) (human (endogenous in iTreg cells)) (UniProt Q9BZS1)

Measured: binding

B1: hypermethylated in cancer 1 (HIC1) (protein, UniProt Q14526 1-733)
chain: MTFPEADILLKSGECAGQTMLDTMEAPGHSRQLLLQLNNQRTKGFLCDVIIVVQNALFRAHKNVLAASSAYLKSLVVHDNLLNLDHDMVSPAVFRLVLDFIYTGRLADGAEAAAAAAVAPGAEPSLGAVLAAASYLQIPDLVALCKKRLKRHGKYCHLRGGGGGGGGYAPYGRPGRGLRAATPVIQACYPSPVGPPPPPAAEPPSGPEAAVNTHCAELYASGPGPAAALCASERRCSPLCGLDLSKKSPPGSAAPERPLAERELPPRPDSPPSAGPAAYKEPPLALPSLPPLPFQKLEEAAPPSDPFRGGSGSPGPEPPGRPDGPSLLYRWMKHEPGLGSYGDELGRERGSPSERCEERGGDAAVSPGGPPLGLAPPPRYPGSLDGPGAGGDGDDYKSSSEETGSSEDPSPPGGHLEGYPCPHLAYGEPESFGDNLYVCIPCGKGFPSSEQLNAHVEAHVEEEEALYGRAEAAEVAAGAAGLGPPFGGGGDKVAGAPGGLGELLRPYRCASCDKSYKDPATLRQHEKTHWLTRPYPCTICGKKFTQRGTMTRHMRSHLGLKPFACDACGMRFTRQYRLTEHMRIHSGEKPYECQVCGGKFAQQRNLISHMKMHAVGGAAGAAGALAGLGGLPGVPGPDGKGKLDFPEGVFAVARLTAEQLSLKQQDKAAAAELLAQTTHFLHDPKVALESLYPLAKFTAELGLSPDKAAEVLSQGAHLAAGPDGRTIDRFSPT
binds: [1] | [2] | [3]
